Drawing on PubChem BioAssay AID493014 (National Center for Advancing Translational Sciences (NCATS), 2011), this text covers AC50 for 63 compounds.

The term AC50 denotes the midpoint of the concentration-response curve, whichever way the signal moves.

This experiment in a line: qHTS Assay to Find Inhibitors of Chronic Active B-Cell Receptor Signaling. The note with it: ABC-DLBCL IkBa-CBG/CBR reporter, luminescence ratio (green luciferase fused to IkBa over red control in TMD8 lymphoma cells), 4 h. Put shortly:
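Concentration-response series (up to 46 uM) were applied to TMD8 dual-reporter cells for 4 h at 37C with doxycycline. Green/red ratio, after filter-overlap correction, defined %Activity; red signal alone was normalised to basal cells and zero luminescence.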
On the technique in general: qHTS replaces the single test concentration by a dilution series.

Setting [1] is: measured here: CBR red luminescence, cell number.
Where [2] appears, read: measured here: IkBa-CBG green luminescence.

The other results are listed elsewhere or left out. These are further read-outs of the screen, such as a control signal, another cell line or another target. No call is given for them. Most of these compounds were active or inconclusive in the main read-out, so they are no random draw. Words in brackets tell the shape of the fitted curve; partial curves, single points and poor fits give uncertain potencies.

On to `C/C(=N/NC(=O)c1ccc(Br)o1)c1ccncc1`, for which the AC50 under setting [1] is 29.1 µM [falling, single point].
Same read-out and setting: as for `O=C(CNC(=O)c1ccco1)NCC(=O)OCc1cccc(Cl)c1`, the figure is 11.2 µM [rising, partial curve].
The same measure, in the same setting: the result for `N=c1oc2ccccc2cc1C(=O)NC1CCCCCC1` reads 4.47 µM [falling, full curve]; that for `COc1ccc(/C=C2\Sc3ccc(C(=O)N4CCCC4)cc3N(C)C2=O)cc1OC`, 25.1 µM [falling, single point].
Still for that read-out and setting: the result for `CCCCC(CC)CNC(=O)C(=O)C1C(=O)Nc2ccccc21` (configuration not stated) reads 5.01 µM [falling, full curve, poor fit]; that for `Cc1cc(C(=O)N/N=C/c2ccc([N+](=O)[O-])cc2)c(C)o1`, 0.562 µM [falling, full curve, poor fit].
Turning to `CSc1ncccc1C(=O)OCC(=O)N(CC(C)C)C1CCS(=O)(=O)C1` (configuration not stated), the AC50 under setting [1] is 14.1 µM [falling, single point].
On to `O=C(Nc1cccc(NC(=O)c2ccc3c(c2)OCO3)c1)c1ccccc1`, for which, under setting [1], the AC50 was 0.0891 µM [falling, full curve, poor fit].
Still for that read-out and setting: as for `Cc1cccc(OCC(=O)N2CCC(N3CCOCC3)CC2)c1`, the figure is 1.46 µM [falling, full curve]; as for `CCc1ccc(CNC(=O)CCc2nnc(CCc3ccc(OC)cc3)o2)nc1`, 5.62 µM [rising, single point].
In the case of `O=S(=O)(Nc1cc(Cl)ccc1-n1cncn1)c1ccccc1Cl`, the AC50 under setting [1] was 1.46 µM [rising, partial curve].
With `CC12CCC(C(=O)N3CCN(c4ccccc4)CC3)(CC1=O)C2(C)C` (configuration not stated), under setting [1], the half-maximal activity concentration (AC50) was 29.1 µM [rising, single point].
Still for that read-out and setting: as for `Cc1ccc2oc(-c3ccco3)nc2c1`, the figure is 35.5 µM [rising, single point]; as for `Clc1cccc(Cn2ncc3ccccc32)c1`, 7.94 µM [rising, partial curve, poor fit].
Regarding `CCc1ccc(-n2c(SC(CC)C(=O)N(CC)CC)nc3n[nH]c(C)c3c2=N)cc1` (configuration not stated), the AC50 is 35.5 µM [falling, single point] under setting [1] and 35.5 µM [rising, partial curve, poor fit] under setting [2].
In the case of `Cc1ccccc1NS(=O)(=O)c1ccc(C(=O)NCC(c2ccco2)N2CCCCC2)cc1` (configuration not stated), the AC50 under setting [1] is 13 µM [falling, partial curve, poor fit].
The same measure, in the same setting: the result for `C/C(=N\NC(=O)C(N)=O)c1ccc(NC(=O)c2cccs2)cc1` reads 8.91 µM [falling, partial curve]; that for `O=C(Nc1ccc2c(c1)CCC2)c1ncoc1-c1ccccc1F`, 0.447 µM [rising, partial curve, poor fit].
The same measure, in the same setting: as for `COc1ccc(NC(=O)CSc2nnc(-c3ccc(F)cc3)o2)cn1`, the figure is 16.4 µM [falling, single point]; as for `CCN(CC1COc2ccccc2O1)C(=S)Nc1ccc(F)cc1` (configuration not stated), 6.51 µM [rising, single point].
Still for that read-out and setting: as for `COc1ccccc1NC(=O)c1oc2ccc(C)cc2c1C`, the figure is 17.8 µM [rising, partial curve, poor fit].
Turning to `CC1=CSC2=NC(=O)/C(=C\c3cccn3-c3ccccc3)C(=N)N12`, the AC50 runs as follows: under setting [1], 0.731 µM [falling, partial curve, poor fit]; under setting [2], 0.731 µM [rising, full curve, poor fit].
Take `CC(=C\C(=O)O)/C(=C\c1cccc2ccccc12)C(=O)O`: the AC50 under setting [1] is 2.82 µM [falling, partial curve, poor fit].
The same measure, in the same setting: the result for `CC1CCN(S(=O)(=O)c2ccc3c(c2)c(=O)c(C(=O)NCc2ccccc2Cl)cn3C)CC1` reads 2.91 µM [falling, partial curve, poor fit].
Consider `CNC(=S)N/N=C1\C(=O)c2cccc3cccc1c23`, for which the AC50 reads like this: under setting [1], 11.2 µM [rising, partial curve, poor fit]; under setting [2], 3.55 µM [falling, full curve].
As for `COc1ccc(NC(=O)c2sc3nc(N4CCCC4)c4c(c3c2N)CC(C)(C)OC4)cc1`, the AC50 under setting [1] was 14.1 µM [rising, partial curve, poor fit].
Turning to `CCOC(=O)c1ccc(NC(=S)NC2CC(C)(C)NC(C)(C)C2)cc1`, the AC50 under setting [1] is 12.6 µM [falling, partial curve].
For the compound `CC(=O)/C=C1/C(=O)Nc2ccccc21`, the AC50 under setting [2] was 35.5 µM [falling, single point].
`COc1ccc(C2=Nn3c(nnc3-c3ccco3)SC2)cc1OC`: the AC50 under setting [1] was 1.12 µM [rising, full curve, poor fit].
The same measure, in the same setting: as for `CN(C)/C=C1/NC(=S)NC1=O`, the figure is 0.794 µM [falling, partial curve, poor fit]; as for `Cc1ccc(NC(=O)C2=CC(c3cccs3)=NS(=O)(=O)N2C)cc1`, 0.355 µM [rising, full curve, poor fit].
Regarding `C=CCSc1nc(C)cc(C(=O)OCC)c1C#N`, under setting [1], the AC50 is 11.2 µM [rising, partial curve].
Still for that read-out and setting: as for `Cc1ccc(Nc2nc(-c3ccc(S(=O)(=O)N4CCOCC4)cc3)cs2)cc1Cl`, the figure is 0.13 µM [rising, full curve, poor fit]; as for `COc1ccc(OCCC(=O)OCC(=O)NC(=O)NC2CCCCC2)cc1`, 8.91 µM [falling, partial curve].
`O=[N+]([O-])c1cc(Cl)cc(/C=N/Nc2nc3ccccc3s2)c1O`: the AC50 under setting [1] was 0.398 µM [falling, full curve].
The same measure, in the same setting: the result for `COc1ccc(CNC(=O)Nc2ccc(C)cc2)cc1` reads 2.06 µM [falling, partial curve, poor fit]; that for `CCCc1c(O)nc(SCCN(CC)CC)[nH]c1=O`, 9.2 µM [falling, partial curve, poor fit].
Take `COc1cccc(NC(=O)CN(C)C(=O)c2c(C)nn(-c3ccccc3)c2Cl)c1`: the AC50 under setting [2] was 23.1 µM [falling, partial curve, poor fit].
As for `O=C(Nc1ncc2c(n1)-c1ccccc1OC2)c1ccc(Cl)cc1`, under setting [1], the AC50 is 0.316 µM [falling, full curve, poor fit].
The same measure, in the same setting: as for `Nc1nc2nc(-c3ccc(Cl)cc3)cc(C(F)(F)F)n2n1`, the figure is 2.59 µM [rising, single point]; as for `O=C(/C=C/c1ccc(Cl)cc1)N1CCN(Cc2ccccc2)CC1`, 8.91 µM [falling, partial curve]; as for `O=C(Nc1cc(Cl)c(Cl)cc1Cl)c1cccnc1`, 10 µM [rising, partial curve, poor fit].
Consider `COc1cc(C2Nc3ccccc3C(=O)N2c2ccccc2)c(Br)cc1OCC(=O)O` (configuration not stated), for which the AC50 was 18.4 µM [rising, single point] under setting [1] and 6.51 µM [falling, partial curve, poor fit] under setting [2].
For `COc1ccc2cc(-c3ccccc3F)ncc2c1`, under setting [2], the AC50 was 0.13 µM [rising, full curve, poor fit].
As to `COc1ccc(/C=C/C(=O)N2CCC(C(N)=O)CC2)cc1S(=O)(=O)N1CCOCC1`, under setting [1], the AC50 was 3.98 µM [rising, partial curve, poor fit].
Turning to `CCOC(=O)c1c(C)[nH]c(C(=O)COC(=O)c2cccnc2Cl)c1C`, under setting [1], the AC50 was 0.291 µM [rising, full curve, poor fit].
Regarding `CCn1nc(C)c(NC(=O)/C=C/c2ccc(OC)c(COc3ccc(Cl)cc3Br)c2)c1C`, the AC50 under setting [1] was 0.0259 µM [rising, full curve, poor fit].
On the same count and under the same terms, as for `CCCCOc1ccc(-c2ncc(N)cn2)cc1`, the figure is 0.891 µM [rising, partial curve, poor fit]; as for `CCn1cc(CNC(=O)c2cc([N+](=O)[O-])c(C)c([N+](=O)[O-])c2)cn1`, 6.51 µM [rising, partial curve, poor fit].
For `O=C(COc1ccccc1[N+](=O)[O-])Nc1cccc(Cl)c1N1CCOCC1`, the AC50 under setting [1] is 25.1 µM [falling, partial curve, poor fit].
Same read-out and setting: the result for `Cc1nnc(NC(=O)c2cc(-c3ccncc3)nc3c(C)cccc23)s1` reads 0.447 µM [rising, full curve, poor fit].
For `CCc1cc2c(=O)c(-c3cnn(-c4ccccc4)c3)c(C(F)(F)F)oc2c(CN(C)C)c1O`, under setting [1], the AC50 was 1.64 µM [rising, partial curve, poor fit].
On the same count and under the same terms, as for `Cc1ccc2nc(NC(=O)c3ccc4ncsc4c3)sc2c1`, the figure is 18.4 µM [falling, single point]; as for `O=C(N/N=C/c1ccc2cccc(OCc3ccccc3)c2n1)c1ccc(Cl)cc1`, 3.55 µM [falling, full curve, poor fit].
Still for that read-out and setting: as for `Cc1ccc(C)c(OCCCC(=O)Nc2ccc(N3CCOCC3)cc2)c1`, the figure is 6.51 µM [rising, partial curve, poor fit]; as for `Cc1nc(N)sc1C(=O)N/N=C/c1ccc([N+](=O)[O-])cc1`, 0.398 µM [falling, full curve].
Consider `COc1ccccc1OCC(O)Cn1c(=N)n(Cc2ccccc2)c2ccccc21` (configuration not stated), for which the concentration at half-maximal activity (AC50) under setting [1] was 2.06 µM [falling, full curve].
With `CC(C)(C)OC(=O)N1CCC(CC2CC(c3ccc(Cl)cc3)=NO2)(C(=O)NCC2CCCCC2)CC1` (configuration not stated), the AC50 under setting [1] is 4.47 µM [falling, single point].
The same measure, in the same setting: the result for `N#CCC(=O)Nc1ccc(C(=O)Nc2cccc(S(N)(=O)=O)c2)cc1` reads 35.5 µM [falling, single point]; that for `O=C1NC(=S)N/C1=C\c1ccc(N2CCOCC2)cc1`, 25.1 µM [rising, partial curve, poor fit]; that for `Cc1ccc2nc(C3CCCN(C(=S)Nc4ccccc4C)C3)[nH]c2c1` (configuration not stated), 6.31 µM [falling, partial curve].
Take `COc1ccc(C(=O)COC(=O)C(O)c2ccccc2)c(OC)c1` (configuration not stated): the AC50 under setting [1] is 1.84 µM [rising, full curve, poor fit].
The same measure, in the same setting: the result for `COc1ccc(-n2nnc3c(=O)n(CC(=O)N4CCC(C)CC4)cnc32)cc1` reads 7.31 µM [rising, partial curve, poor fit].
